Measured values taken from patent US20250179192A1 (PHARMABCINE, published 2025).

Chains of the proteins cited; added tags and fusions are not shown. Residues count along the entry.
UniProt Q9NR61, 27-685: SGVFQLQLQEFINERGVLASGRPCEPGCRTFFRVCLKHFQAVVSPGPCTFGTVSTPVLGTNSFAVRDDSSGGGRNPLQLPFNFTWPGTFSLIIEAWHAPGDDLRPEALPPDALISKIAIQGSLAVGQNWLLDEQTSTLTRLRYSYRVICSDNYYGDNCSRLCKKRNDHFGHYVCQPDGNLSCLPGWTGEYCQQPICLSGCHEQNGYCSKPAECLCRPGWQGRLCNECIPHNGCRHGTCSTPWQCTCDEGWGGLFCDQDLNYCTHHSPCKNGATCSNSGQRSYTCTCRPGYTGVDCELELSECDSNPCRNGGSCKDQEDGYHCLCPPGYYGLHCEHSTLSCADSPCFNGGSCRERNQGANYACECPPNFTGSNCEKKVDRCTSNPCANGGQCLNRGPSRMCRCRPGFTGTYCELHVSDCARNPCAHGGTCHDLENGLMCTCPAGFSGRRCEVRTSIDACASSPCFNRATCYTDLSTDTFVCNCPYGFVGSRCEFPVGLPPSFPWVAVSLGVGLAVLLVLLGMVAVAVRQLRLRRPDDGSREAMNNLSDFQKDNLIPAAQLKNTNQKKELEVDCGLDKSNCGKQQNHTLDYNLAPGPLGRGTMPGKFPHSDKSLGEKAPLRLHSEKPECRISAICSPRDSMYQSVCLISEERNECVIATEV
UniProt P35968, 20-1356 limits assumed: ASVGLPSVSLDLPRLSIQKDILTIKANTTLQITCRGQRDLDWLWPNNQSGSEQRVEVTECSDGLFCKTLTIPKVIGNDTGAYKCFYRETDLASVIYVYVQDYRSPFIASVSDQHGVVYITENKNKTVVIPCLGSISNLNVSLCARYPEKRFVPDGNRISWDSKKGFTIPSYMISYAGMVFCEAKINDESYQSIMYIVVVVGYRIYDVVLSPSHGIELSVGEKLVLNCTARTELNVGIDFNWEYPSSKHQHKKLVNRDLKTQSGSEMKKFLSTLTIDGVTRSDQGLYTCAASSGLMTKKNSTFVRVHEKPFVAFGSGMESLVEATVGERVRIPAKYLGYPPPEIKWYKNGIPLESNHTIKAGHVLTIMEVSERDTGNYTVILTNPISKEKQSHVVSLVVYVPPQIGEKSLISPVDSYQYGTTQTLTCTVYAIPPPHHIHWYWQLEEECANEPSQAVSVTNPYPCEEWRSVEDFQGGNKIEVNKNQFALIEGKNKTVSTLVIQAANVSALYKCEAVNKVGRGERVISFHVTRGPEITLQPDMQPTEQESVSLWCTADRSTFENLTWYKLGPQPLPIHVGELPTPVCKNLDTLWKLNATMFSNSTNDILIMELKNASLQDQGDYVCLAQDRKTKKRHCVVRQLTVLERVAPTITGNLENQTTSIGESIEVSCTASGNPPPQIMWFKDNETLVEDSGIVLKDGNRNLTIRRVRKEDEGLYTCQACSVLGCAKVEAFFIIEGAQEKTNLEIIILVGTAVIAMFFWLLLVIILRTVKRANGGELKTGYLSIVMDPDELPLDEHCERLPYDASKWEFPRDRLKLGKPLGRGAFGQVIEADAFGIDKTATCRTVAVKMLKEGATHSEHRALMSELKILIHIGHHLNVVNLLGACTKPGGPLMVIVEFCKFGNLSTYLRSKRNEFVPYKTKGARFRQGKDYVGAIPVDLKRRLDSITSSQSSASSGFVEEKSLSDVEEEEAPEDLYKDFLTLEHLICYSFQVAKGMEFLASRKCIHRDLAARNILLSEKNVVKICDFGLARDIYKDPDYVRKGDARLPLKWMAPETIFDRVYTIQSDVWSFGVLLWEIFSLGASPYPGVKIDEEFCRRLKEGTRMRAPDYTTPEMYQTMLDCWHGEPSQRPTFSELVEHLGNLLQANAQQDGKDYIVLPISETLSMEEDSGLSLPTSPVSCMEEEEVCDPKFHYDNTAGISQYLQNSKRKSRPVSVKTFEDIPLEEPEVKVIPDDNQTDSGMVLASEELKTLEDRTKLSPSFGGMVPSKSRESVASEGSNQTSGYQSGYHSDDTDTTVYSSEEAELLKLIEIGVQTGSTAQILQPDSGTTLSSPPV

Assays:
[1] = biological target: T1, hDLL4 expressed on HEK293 cells (human, UniProt Q9NR61 27-685); assay: FACS on hDLL4-overexpressing HEK293 cells (293-DLL4), 5 nM, anti-human IgG-PE secondary; secondary only 82.0
T1 construct: whole, on cells; also called DLL4-overexpressed HEK293 cells
Description: Specifically, the pcDNA-hDLL4 vector synthesized by GeneArt was transfected into HEK293 cells using Lipofectamin™ 2000 (Invitrogen #1168-019, USA), and neomycin (Gibco #10131, 50 mg/ml) was added for selection. Then, all grown cells were collected and cultured in a pool state. Then, 23 types of single colonies were obtained by culture using a limiting dilution method, and among the single colonies, one type of cell line that highly overexpressed hDLL4 was selected and tested. The selected cells were prepared to a concentration of 2×10⁷ cells/ml in FACS buffer (0.5% FBS, 0.05% sodium azide in PBS) and dispensed at 50 μl into each of FACS tubes. 5 nM fusion protein and control antibodies (6A6, 6A6×DLL4, D4, D4×DLL4, Minod-Fc) were added in 100 μl to each of the FACS tubes containing the cells, followed by reaction at 4° C. for 30 minutes. After completion of reaction, 2 ml of FACS buffer was added to each tube, followed by centrifugation at 1500 rpm for 3 minutes. The supernatant was removed, the cells were well resuspended, and then 100 μl of anti-human IgG-PE antibody (1:200, […], #A80-248PE) was added, followed by reaction at 4° C. for 20 minutes. […] The separated supernatant was removed, the cells were resuspended in 200 μl of FACS buffer, and the binding activity was analyzed using FACS (Beckton Dickinson, Lyric).

[2] = biological target: T2, VEGFR2 (KDR) on HUVECs (human, UniProt P35968 20-1356); assay: FACS on HUVECs, anti-human IgG-PE secondary
T2 construct: Endogenous receptor on HUVECs; also called KDR (VEGFR-2)
Description: (§1) To determine the binding activity of the fusion protein to HUVECs, FACS analysis was performed using the fusion protein and control antibodies (6A6, 6A6×DLL4, D4, Minod-Fc).
(§2) Specifically, HUVECs (LONZA, Cat No. C2519A) were cultured at 37° C. and 5% CO₂ using a plate coated with 2% gelatin and VascuLife medium complete kit (Lifeline Cell Technology, Cat No. #LCT-LL-0005). The cells were prepared at a concentration of 2×10⁷ cells/ml in FACS buffer (0.5% FBS, 0.05% sodium azide in PBS) and dispensed at 50 μl into each of FACS tubes. 100 μl of each antibody at a concentration of 5 nM was mixed in the FACS tube, followed by reaction at 4° C. for 30 minutes. After completion of reaction, 2 ml of FACS buffer was added to each tube, followed by centrifugation at 1500 rpm for 3 minutes. The supernatant was removed, the cells were resuspended, and 100 μl of anti-human IgG-PE antibody (1:200, Bethyl, #A80-248PE) was added, followed by reaction at 4° C. for 20 minutes. 2 ml of FACS buffer was added to each FACS tube, followed by centrifugation at 1500 rpm for 3 minutes. The separated supernatant was removed, the cells were resuspended in 200 μl of FACS buffer, and the binding activity was analyzed using FACS (Beckton Dickinson, Lyric).

[3] = biological target: T2, VEGFR2 (KDR) on HUVECs; assay: FACS on HUVECs, 5 nM, anti-human IgG-PE secondary; secondary only 65.7
Description: as §1, §2

B1: Minod-Fc (Fc fusion, not shown: a dimerising Fc or GST)
chain: DVDECSLGANPCEHAGKCINTLGSFECQCLQGYTGPRCEIDVNECVSNPCQNDATCLDQIGEFQCICMPGYEGVHCE
notes: written here with the Notch1 domain first
Question: Which “Geometric Mean : PE-A” value [1] does the source give for B1 here?
Answer: Its value is 691.

Question: Does B1 bind [2]?
Answer: Result: no binding (tested: 5 nM)

Question: What about the “Geometric Mean : PE-A” value [3] of the same binder?
Answer: Its value is 83.
